From patent publication US20160106864 (published 2016)
Ends that are not written are not given here.

Assay: Fmoc solid-phase peptide synthesis; MBNA resin
Conditions: whole synthesis

With GRRRRRRRRRGYKC the “final purity (method not given)” value was 90% or higher.
